Assay results reported in PubChem BioAssay AID743255 (National Center for Advancing Translational Sciences (NCATS), 2014).
About 910 (0.23%) of roughly 390,000 compounds were called active. Inconclusive results, whose numbers are uncertain, are shown with a selection of clear calls. The call rests on the fitted dose curve; in most records, active means well fitted inhibition curve with a large enough effect; inconclusive means small, poorly fitted or top-dose-only effect; inactive means no such curve, though single readings can be large or run the other way. Potencies of inconclusive entries are doubtful fits and often do not repeat.

Protein sequences, listed by entry. Tags and fused reporters are not part of them. Lines headed by an entry give the natural chain unless they say otherwise; changes in a name come on top.
UniProt O94782: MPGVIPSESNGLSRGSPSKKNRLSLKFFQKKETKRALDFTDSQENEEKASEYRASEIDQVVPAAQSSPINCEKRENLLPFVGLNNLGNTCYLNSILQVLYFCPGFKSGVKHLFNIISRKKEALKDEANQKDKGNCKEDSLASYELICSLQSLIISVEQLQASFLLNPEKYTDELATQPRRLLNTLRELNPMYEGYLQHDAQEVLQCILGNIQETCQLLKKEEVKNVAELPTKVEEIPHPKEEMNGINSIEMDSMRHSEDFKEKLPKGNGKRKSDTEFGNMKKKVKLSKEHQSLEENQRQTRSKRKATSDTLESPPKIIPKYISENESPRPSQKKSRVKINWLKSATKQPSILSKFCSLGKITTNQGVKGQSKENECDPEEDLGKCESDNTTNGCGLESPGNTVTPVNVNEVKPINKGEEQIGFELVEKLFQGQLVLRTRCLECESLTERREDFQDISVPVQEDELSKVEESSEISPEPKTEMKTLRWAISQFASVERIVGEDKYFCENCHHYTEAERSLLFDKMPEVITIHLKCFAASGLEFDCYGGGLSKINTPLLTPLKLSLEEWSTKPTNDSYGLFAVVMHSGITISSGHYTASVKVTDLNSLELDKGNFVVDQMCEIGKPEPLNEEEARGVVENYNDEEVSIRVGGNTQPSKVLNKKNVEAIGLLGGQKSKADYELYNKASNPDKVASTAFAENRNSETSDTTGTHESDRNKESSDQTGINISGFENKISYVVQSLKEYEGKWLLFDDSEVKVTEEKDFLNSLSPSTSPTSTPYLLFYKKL

Target: Ubiquitin carboxyl-terminal hydrolase 1 (Homo sapiens) (UniProt O94782)
Test: Inhibitors of USP1/UAF1: Primary Screen; further: nearly all actives have a fitted effect of over 60% in size
Settings: recombinant USP1/UAF1, Ub-Rhodamine cleavage fluorescence; series mostly up to 57.1 µM
Outline: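 In this screen, compounds sit with the deubiquitinase complex (1nM) for 15 min at room temperature before Ub-Rho is added at 150nM final. Fluorescence rise is then followed for 6 reads every 60 seconds.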
Potency means the concentration at half of the fitted maximal effect.

Row | SMILES | Potency
1 | O=C(CCCCCBr)N1CCC(CC2CC(c3ccc(Cl)cc3)=NO2)(C(=O)NCC2CCCCC2)CC1 (configuration not stated) | inactive
2 | COC(=O)c1ccc(-n2nnc(-c3nsc(NC(=O)c4ccc(Cl)cc4)n3)c2C)cc1 | inconclusive: 0.708 µM [inhibitor, full curve]
3 | O=C(Oc1ccccc1)c1ccccc1C(=O)Oc1ccccc1 | inconclusive: 4.47 µM [inhibitor, partial curve]
4 | CCOC(=O)c1c2ccc(OCC(=O)NN)cc2n2ccccc12 | inconclusive: 8.91 µM [inhibitor, full curve]
5 | O=C(OCC(O)CO)c1ccccc1Nc1ccnc2cc(Cl)ccc12 (configuration not stated) | inactive
6 | CC(=O)OCC1=C(C(=O)O)N2C(=O)C(NC(=O)CCn3nc(C(F)(F)F)c(Br)c3C3CC3)C2SC1 (configuration not stated) | inactive
7 | CC(/C=N/NC(=O)c1ccc(CN2c3cccc4cccc(c34)S2(=O)=O)cc1)c1ccccc1 (configuration not stated) | inactive
8 | CCCS(=O)(=O)N1CCCC(c2nc(-c3ccc(OC)cc3)no2)C1 (configuration not stated) | inconclusive: 0.282 µM [inhibitor, full curve, poor fit]
9 | CC(O)[C@H]1CNC(=O)C(=O)N1CCc1cccc2ccccc12 (some centres not stated) | inconclusive: 8.91 µM [inhibitor, partial curve, poor fit]
10 | Cc1ccccc1Nc1c(-c2ccc(O)cc2)nc2c(C)cccn12 | inconclusive: 7.94 µM [inhibitor, single point]
11 | O=C(NC1CCCC1)c1cc(-c2ccccc2Cl)on1 | inconclusive: 1.12 µM [inhibitor, full curve, poor fit]
12 | O=C1CN(S(=O)(=O)c2ccc(Br)cc2)c2ccccc2N1 | inconclusive: 17.8 µM [inhibitor, partial curve]
13 | Cc1ccc([N+](=O)[O-])cc1NC(=O)CCSc1ccc(Cl)cc1 | inactive
14 | COc1ccc(-c2nnc(SCC(=O)NC3CCCCC3)o2)cc1 | inconclusive: 0.794 µM [inhibitor, full curve, poor fit]
15 | N#CC1(C#N)CC(C=O)=C(N)C1(C#N)CC(=O)c1ccc(F)cc1 (configuration not stated) | inconclusive: 17.8 µM [inhibitor, partial curve]
16 | O=c1oc2ccccc2c(Nc2cc3ccccc3cc2O)c1[N+](=O)[O-] | inactive
17 | Cn1c(=O)[nH]c2nnc(-c3ccc(Cl)c(Cl)c3)nc2c1=O | inconclusive: 0.708 µM [inhibitor, full curve, poor fit]
18 | CCN1C(=O)[C@@H]2[C@@H](c3ccc(SC4CCCCC4)cc3)N3CCCC[C@@]3(C(=O)OC)[C@@H]2C1=O | inconclusive: 50.1 µM [inhibitor, partial curve, poor fit]
19 | c1ccc2oc(SCc3cn4ccsc4n3)nc2c1 | inactive
20 | COc1cccc(NC(=O)c2ccc3c(=O)n4nc(Nc5ccccc5OC)sc4nc3c2)c1 | inactive
21 | CCOc1ccc(NC(=O)c2cc(=O)[nH]c3ccccc23)cc1 | inactive

Quoted at random: two entries already listed, in no set order.
Row | SMILES | Potency
19 | c1ccc2oc(SCc3cn4ccsc4n3)nc2c1 | inactive
15 | N#CC1(C#N)CC(C=O)=C(N)C1(C#N)CC(=O)c1ccc(F)cc1 (configuration not stated) | inconclusive: 17.8 µM [inhibitor, partial curve]

Remaining list, next part.

Row | SMILES | Potency
22 | CCCn1c(O)c(CN2CCCC(C)C2)c(C)c(C#N)c1=O (configuration not stated) | inconclusive: 31.6 µM [inhibitor, single point]
23 | CCOC(=O)NC(=S)Nc1cccc(NC(=S)NC(=O)OCC)c1 | inconclusive: 0.891 µM [inhibitor, full curve, poor fit]
24 | COc1ccc2c(c1)OC[C@H]1[C@H]2N2C(=O)c3ccc(F)cc3NC(=O)[C@@]2(C)[C@H]1c1ccccc1 | inconclusive: 50.1 µM [inhibitor, partial curve, poor fit]
25 | CCCCNC(=O)C1CCN(S(=O)(=O)c2ccc3c(c2)CC(C)N3C(=O)C2CC2)CC1 (configuration not stated) | inconclusive: 5.01 µM [inhibitor, partial curve]
26 | C[C@H]1CN([C@@H](C)CO)C(=O)CCCn2nncc2CO[C@H]1CN(C)S(=O)(=O)c1ccc(-n2cccn2)cc1 | inconclusive: 0.282 µM [inhibitor, full curve, poor fit]
27 | CSc1ccc(CNC(=O)c2ccc3c(c2)N(C)C(=O)C2CCCCN32)cc1 (configuration not stated) | inconclusive: 50.1 µM [inhibitor, partial curve, poor fit]
28 | CCOc1cc(/C=N/NC(=O)c2ccc(CN3CCOCC3)cc2)ccc1OC | inconclusive: 6.31 µM [inhibitor, single point]
29 | CCc1ccc(N2C(=O)CN(Cc3ccc(OC)c(OC)c3)C2=S)cc1 | inactive
30 | CCN(CC)c1ccc2cc(-c3nc(-c4ccccc4)no3)c(=O)oc2c1 | inconclusive: 6.31 µM [inhibitor, partial curve, poor fit]
31 | COc1ccc(-n2ncc(C(=O)NCc3ccc4c(c3)OCO4)c2C2CCN(C(=O)OC(C)(C)C)CC2)cc1 | inconclusive: 0.224 µM [inhibitor, full curve, poor fit]
32 | O=c1oc(-c2ccccc2)cc(Cl)c1Cl | inactive
33 | Cc1cccc(OCC(=O)Nc2cccc(C(=O)OCc3cc(=O)n4c(C)csc4n3)c2)c1 | inactive
34 | Cc1ccc(Nc2cc(=O)n(C)c(=O)[nH]2)cc1C | inconclusive: 0.355 µM [inhibitor, full curve, poor fit]
35 | Cc1cc(C)c(NC(=O)COCc2cc(-c3cccs3)on2)c(C)c1 | inactive
36 | COc1ccc(-c2cn3nc(SCC(=O)Nc4ccccc4F)ccc3n2)cc1 | inconclusive: 20 µM [inhibitor, partial curve, poor fit]
37 | CCCCC1=C(C(=O)OCC)C(C(=O)OCC)Oc2ccccc21 (configuration not stated) | inconclusive: 0.251 µM [inhibitor, full curve]
38 | COc1ccc(Nc2ncnc3onc(C)c23)cc1Cl | inactive
39 | O=C(C1=C[C@@H](c2csc3ccccc23)C[C@@H](OCc2ccc(CO)cc2)O1)N1CCN(Cc2ccccc2)CC1 | inconclusive: 44.7 µM [inhibitor, partial curve, poor fit]
40 | COc1ccc(F)cc1S(=O)(=O)N1CCCN(S(=O)(=O)c2cc(F)ccc2OC)CC1 | inactive
41 | COC/C=C/C1=CC2=CC(=O)C(C)(OC(=O)c3cnc4ccccc4n3)C(=O)C2=CN1Cc1ccccc1 (configuration not stated) | inconclusive: 39.8 µM [inhibitor, partial curve]
42 | CC(/C=N/NC(=O)c1ccccc1F)=C\c1ccccc1 | inactive
